Counter-ions that a name gives are not always drawn.
Test: dissolution of tank-derived sludge by NaOCl and acid
Conditions: for After NaOCl (Δg): 6% NaOCl

Cl [HCl]
dissolution of sludge material (in words): not as effective

OCl [NaOCl, sodium hypochlorite]
dissolution of sludge material (in words): very effective in dissolving sludge material | After NaOCl (Δg) (incubation 10 min): 0.331 g | After NaOCl (Δg) (incubation 30 min): 0.174 g | After NaOCl (Δg) (incubation 60 min): 0.120 g
